Laboratory results: PMC9468113
These are yes or no findings as the source states them, for the method shown. In cells and extracts the contact can be indirect. Some entries that bind do so weakly or less than the wild type.

Key:
[1] = biological target: T1, endogenous MIF in human platelet preparations and thrombus tissue (human (endogenous in platelets and thrombus tissue)) (UniProt P14174); test: proximity ligation; Duolink PLA on cryosections of human thrombi from PAD patients; mouse anti-MIF D2 and rabbit anti-CXCL4L1 PA5-21944
T1 sequence: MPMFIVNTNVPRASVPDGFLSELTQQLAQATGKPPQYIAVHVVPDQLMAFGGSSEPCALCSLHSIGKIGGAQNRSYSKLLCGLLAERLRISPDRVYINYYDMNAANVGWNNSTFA

[2] = biological target: T2, biotinylated human MIF (macrophage migration inhibitory factor) (human) (UniProt P14174); test: pull-down; semi-endogenous pull-down: precleared MonoMac6 lysate incubated with biotin-MIF overnight at 4 °C, captured on streptavidin paramagnetic beads; Western blot for CXCL4L1 and MIF; only the target purified
T2 sequence (chain, biotin (NHS ester labelling; positions not stated)): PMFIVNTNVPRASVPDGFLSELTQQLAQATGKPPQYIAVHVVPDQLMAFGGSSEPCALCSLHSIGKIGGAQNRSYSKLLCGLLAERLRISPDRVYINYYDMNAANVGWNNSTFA

B1: endogenous CXCL4L1 in human platelet preparations and thrombus tissue (protein, UniProt P10720 31-104)
chain: FARAEAEEDGDLQCLCVKTTSQVRPRHITSLEVIKAGPHCPTAQLIATLKNGRKICLDLQALLYKKIIKEHLES
- binding [1]: binds

B2: endogenous CXCL4L1 from MonoMac6 lysates (protein, UniProt P10720 31-104)
chain: B1 chain
- binding [2]: binds
